Assay results taken from patent US20140005164A1, “WNT PATHWAY ANTAGONISTS” (Siena Biotech S.p.A., priority 2011, published 2014).
Some results were stated once for a whole list of compounds, not compound by compound. For at least one compound, name, drawing or mass did not settle the structure.

test system: DBTRG-05MG glioblastoma cell line; experiment: Renilla read out (TA-Renilla, Wnt-independent internal control for cell number and toxicity); type: cell-based; settings: TA-Renilla luciferase, 24 hours after compound addition

**Q.** `Cn1c(=O)n(C[C@H]2CC[C@H](C(=O)Nc3ccncc3)CC2)c2nc(NCc3cccnc3)ccc21` [Example 126] was tested. Which “effect in the renilla read out” value did it give?
**A.** negligible effect

**Q.** How did the “effect in the renilla read out” value turn out when `COc1ccc2c(c1)n(C[C@H]1CC[C@H](C(=O)Nc3ccnnc3)CC1)c(=O)n2C` [Example 100] was run?
**A.** negligible effect

**Q.** With `COc1ccc2c(c1)n(C[C@H]1CC[C@H](c3nnc(-c4cnn(C)c4)o3)CC1)c(=O)n2C` [Example 106] as the molecule, how does the “effect in the renilla read out” value read?
**A.** negligible effect

**Q.** `COc1ccc2c(c1)n(C[C@H]1CC[C@H](c3noc(-c4cccnc4)n3)CC1)c(=O)n2C` [Example 172] was tested. Which “effect in the renilla read out” value did it give?
**A.** negligible effect

**Q.** Which “effect in the renilla read out” value does the source give for `COCCOc1ccc2c(c1)n(C[C@H]1CC[C@H](C(=O)N3CCN(c4ccncc4)CC3)CC1)c(=O)n2C` [Example 157] here?
**A.** negligible effect

**Q.** With `CCC(=O)CN1CCN(C(=O)[C@H]2CC[C@H](Cn3c(=O)n(C)c4ccc(OC)cc43)CC2)CC1=O` [Example 7, 5-Methoxy-1-methyl-3-{trans-4-[3-oxo-4-(2-oxo-butyl)-piperazine-1-carbonyl]-cyclohexylmethyl}-1,3-dihydro-benzoimidazol-2-one] as the molecule, how does the “effect in the renilla read out” value read?
**A.** negligible effect

**Q.** With `COc1ccc2c(c1)n(C[C@H]1CC[C@H](C(=O)N3CCC(c4cnccn4)CC3)CC1)c(=O)n2C` [Example 83] as the molecule, how does the “effect in the renilla read out” value read?
**A.** negligible effect

**Q.** For `Cn1c(=O)n(C[C@H]2CC[C@H](C(=O)Nc3ccnc(N4CCOCC4)c3)CC2)c2cccc(Cl)c21` [Example 43], which “effect in the renilla read out” value is on record?
**A.** negligible effect

**Q.** How did the “effect in the renilla read out” value turn out when `COc1ccc2c(c1)n(C[C@H]1CC[C@H](C(=O)N3CCN(c4ccc(F)nc4)CC3)CC1)c(=O)n2C` [Example 89] was run?
**A.** negligible effect

**Q.** `COCCOc1ccc2c(n1)n(C[C@H]1CC[C@H](c3nnc(-c4cccnc4)o3)CC1)c(=O)n2C` [Example 181] was tested. Which “effect in the renilla read out” value did it give?
**A.** negligible effect

**Q.** `Cn1c(=O)n(C[C@H]2CC[C@H](C(=O)Nc3ccncc3)CC2)c2cc(OCCN3CCOCC3)ccc21` [Example 152] was tested. Which “effect in the renilla read out” value did it give?
**A.** negligible effect

**Q.** `COc1cc2c(cc1F)n(C)c(=O)n2C[C@H]1CC[C@H](C(=O)N2CCN(C(C)=O)CC2)CC1` [Example 161] was tested. Which “effect in the renilla read out” value did it give?
**A.** negligible effect

**Q.** Which “effect in the renilla read out” value does the source give for `COc1ccc2c(c1)n(C[C@H]1CC[C@H](C(=O)N3CCC(F)(F)C3)CC1)c(=O)n2C` [Example 44] here?
**A.** negligible effect

**Q.** How did the “effect in the renilla read out” value turn out when `CCOc1ccc2c(c1)n(C[C@H]1CC[C@H](C(=O)Nc3ccncc3)CC1)c(=O)n2C` [Example 17] was run?
**A.** negligible effect

**Q.** With `Cn1c(=O)n(C[C@H]2CC[C@H](C(=O)Nc3ccncc3)CC2)c2cc(Br)ccc21` [Example 111] as the molecule, how does the “effect in the renilla read out” value read?
**A.** negligible effect

**Q.** How did the “effect in the renilla read out” value turn out when `C#Cc1ccc2c(c1)n(C[C@H]1CC[C@H](C(=O)N3CCN(C(C)=O)CC3)CC1)c(=O)n2C` [Example 14, 3-[trans-4-(4-Acetyl-piperazine-1-carbonyl)-cyclohexylmethyl]-5-ethynyl-1-methyl-1,3-dihydro-benzoimidazol-2-one] was run?
**A.** negligible effect

**Q.** `Cn1c(=O)n(C[C@H]2CC[C@H](C(=O)N3CCN(c4nccs4)CC3)CC2)c2cccc(Cl)c21` [Example 56] was tested. Which “effect in the renilla read out” value did it give?
**A.** negligible effect

**Q.** With `COc1ccc2c(c1)n(C[C@H]1CC[C@H](C(=O)Nc3cccnc3)CC1)c(=O)n2C` [Example 37] as the molecule, how does the “effect in the renilla read out” value read?
**A.** negligible effect

**Q.** Which “effect in the renilla read out” value does the source give for `COCCOc1cc(NC(=O)[C@H]2CC[C@H](Cn3c(=O)n(C)c4cc(Cl)ccc43)CC2)ccn1` [Example 57] here?
**A.** negligible effect

**Q.** With `COc1ccc2c(c1)n(C[C@H]1CC[C@H](c3nnc(-c4cnc(C)cn4)o3)CC1)c(=O)n2C` [Example 128] as the molecule, how does the “effect in the renilla read out” value read?
**A.** negligible effect

**Q.** With `COCCOc1ccc2c(n1)n(C[C@H]1CC[C@H](c3nnc(-c4cnn(C)c4)o3)CC1)c(=O)n2C` [Example 180] as the molecule, how does the “effect in the renilla read out” value read?
**A.** negligible effect

**Q.** How did the “effect in the renilla read out” value turn out when `Cn1c(=O)n(C[C@H]2CC[C@H](C(=O)N3CCN(c4ccncc4)CC3)CC2)c2cc(C#N)ccc21` [Example 123] was run?
**A.** negligible effect
